{
  "source": "the supplement of paper PMC4635364",
  "key": {"ReNCell VM [1]": {"system": "ReNCell VM", "assay": "neuronal differentiation score (DCX+ cell fraction vs untreated, manual image score) (score (-3 to 3)); higher = more neuronal differentiation", "details": "2 uM, 2 weeks"}, "ReNCell VM [2]": {"system": "ReNCell VM", "assay": "dopaminergic neuron differentiation score (TH+ cell fraction vs untreated, manual image score) (score (0 to 3)); higher = more TH+ dopaminergic neuron differentiation", "details": "2 uM, 4 weeks, BDNF 10 ng/ml + GDNF 10 ng/ml"}},
  "note": "Counter-ions that a name gives are not always drawn. This is one part of the list. Single values are uncertain here, since repeats match poorly.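 ReNCell VM, a human fetal ventral-midbrain neural progenitor line, was differentiated without mitogens. Blinded raters scored images stained for doublecortin (early neurons) or tyrosine hydroxylase (dopaminergic neurons) against untreated wells (0 = no change). Scores were averaged across repeats and both raters, and compounds averaging 2 or more were selected as hits for retesting.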",
  "data": [
    {"smiles": "CCc1cc(-c2n[nH]c(C)c2-c2ccc3c(c2)OCCO3)c(O)cc1O", "values": [
      {"measurement": "neuronal differentiation score", "setting": "ReNCell VM [1]; library: Tocriscreen", "value": "inactive: -1"},
      {"measurement": "dopaminergic neuron differentiation score", "setting": "ReNCell VM [2]; library: Tocriscreen", "value": "inactive: 0"}
    ]},
    {"smiles": "COc1ccc2c3c(c(=O)n(C)c2c1OC)C=CC(C)(C)O3", "note": "[Veprisine]", "values": [
      {"measurement": "neuronal differentiation score", "setting": "ReNCell VM [1]; library: Phytochemical", "value": "inactive: 0"},
      {"measurement": "dopaminergic neuron differentiation score", "setting": "ReNCell VM [2]; library: Phytochemical", "value": "inactive: 0"}
    ]},
    {"smiles": "CC1(C)[C@@H](OC(=O)CCC(=O)O)CC[C@]2(C)[C@H]3C(=O)C=C4[C@@H]5C[C@@](C)(C(=O)O)CC[C@]5(C)CC[C@@]4(C)[C@]3(C)CC[C@@H]12", "note": "[Carbenoxolone disodium salt]", "values": [
      {"measurement": "neuronal differentiation score", "setting": "ReNCell VM [1]; library: Prestwick", "value": "inactive: 0"},
      {"measurement": "dopaminergic neuron differentiation score", "setting": "ReNCell VM [2]; library: Prestwick", "value": "inactive: 0"}
    ]},
    {"smiles": "COc1cc(O)c2c(=O)cc(C)oc2c1CC=C(C)C", "values": [
      {"measurement": "neuronal differentiation score", "setting": "ReNCell VM [1]; library: Spectrum", "value": "inactive: 0"},
      {"measurement": "dopaminergic neuron differentiation score", "setting": "ReNCell VM [2]; library: Spectrum", "value": "inactive: 0"}
    ]},
    {"smiles": "CC(C)NCC(O)c1ccc(NS(C)(=O)=O)cc1", "note": "(stereo not given)", "values": [
      {"measurement": "neuronal differentiation score", "setting": "ReNCell VM [1]; library: Spectrum", "value": "active: 3"},
      {"measurement": "dopaminergic neuron differentiation score", "setting": "ReNCell VM [2]; library: Spectrum", "value": "inactive: 0"}
    ]},
    {"smiles": "C[N+]1(C)CCC(OC(=O)C(O)(c2ccccc2)C2CCCC2)C1", "note": "(stereo not given) [Glycopyrrolate]", "values": [
      {"measurement": "neuronal differentiation score", "setting": "ReNCell VM [1]; library: Prestwick", "value": "inactive: 0"},
      {"measurement": "dopaminergic neuron differentiation score", "setting": "ReNCell VM [2]; library: Prestwick", "value": "inactive: 0"}
    ]},
    {"smiles": "CCCCCCN(CCCCCC)C(=O)Cc1c(-c2ccc(F)cc2)[nH]c2ccccc12", "note": "[N,N-Dihexyl-2-(4-fluorophenyl)indole-3-acetamide]", "values": [
      {"measurement": "neuronal differentiation score", "setting": "ReNCell VM [1]; library: LOPAC", "value": "inactive: 0"},
      {"measurement": "dopaminergic neuron differentiation score", "setting": "ReNCell VM [2]; library: LOPAC", "value": "inactive: 0"}
    ]},
    {"smiles": "CNC(=O)[C@H]1O[C@@H](n2cnc3c(NCc4cccc(I)c4)nc(Cl)nc32)[C@H](O)[C@@H]1O", "values": [
      {"measurement": "neuronal differentiation score", "setting": "ReNCell VM [1]; library: Tocriscreen", "value": "inactive: -1"},
      {"measurement": "dopaminergic neuron differentiation score", "setting": "ReNCell VM [2]; library: Tocriscreen", "value": "inactive: 0"}
    ]},
    {"smiles": "CN(C)C(=N)NC(=N)N", "note": "[Metformin hydrochloride]", "values": [
      {"measurement": "neuronal differentiation score", "setting": "ReNCell VM [1]; library: Prestwick", "value": "inactive: 0"},
      {"measurement": "dopaminergic neuron differentiation score", "setting": "ReNCell VM [2]; library: Prestwick", "value": "inactive: 0"}
    ]},
    {"smiles": "Fc1ccc(Cl)cc1-c1nc(Nc2ccncc2)c2nccnc2n1", "values": [
      {"measurement": "neuronal differentiation score", "setting": "ReNCell VM [1]; library: Tocriscreen", "value": "inactive: 0"},
      {"measurement": "dopaminergic neuron differentiation score", "setting": "ReNCell VM [2]; library: Tocriscreen", "value": "inactive: 0"}
    ]},
    {"smiles": "CC(=O)OCC(=O)[C@@]1(O)CC[C@H]2[C@@H]3CCC4=CC(=O)C=C[C@]4(C)[C@@]3(F)[C@@H](O)C[C@@]21C", "note": "[Isoflupredone acetate]", "values": [
      {"measurement": "neuronal differentiation score", "setting": "ReNCell VM [1]; library: Prestwick", "value": "inactive: 0"},
      {"measurement": "dopaminergic neuron differentiation score", "setting": "ReNCell VM [2]; library: Prestwick", "value": "inactive: 0"}
    ]},
    {"smiles": "CC1(C)CC23C(=O)CCC(O)C2(C)CCC13", "note": "(stereo not given)", "values": [
      {"measurement": "neuronal differentiation score", "setting": "ReNCell VM [1]; library: Spectrum", "value": "inactive: 0"},
      {"measurement": "dopaminergic neuron differentiation score", "setting": "ReNCell VM [2]; library: Spectrum", "value": "inactive: 0"}
    ]},
    {"smiles": "O=C(O)C(CO)c1ccccc1", "note": "(stereo not given) [Tropic acid]", "values": [
      {"measurement": "neuronal differentiation score", "setting": "ReNCell VM [1]; library: Phytochemical", "value": "inactive: 0"},
      {"measurement": "dopaminergic neuron differentiation score", "setting": "ReNCell VM [2]; library: Phytochemical", "value": "inactive: 0"}
    ]},
    {"smiles": "C[C@@H]1CC[C@@]2(OC1)O[C@H]1C[C@H]3[C@@H]4CC[C@@H]5C[C@@H](O)CC[C@]5(C)[C@H]4CC[C@]3(C)[C@H]1[C@@H]2C", "values": [
      {"measurement": "neuronal differentiation score", "setting": "ReNCell VM [1]; library: Spectrum", "value": "inactive: 0"},
      {"measurement": "dopaminergic neuron differentiation score", "setting": "ReNCell VM [2]; library: Spectrum", "value": "inactive: 0"}
    ]},
    {"smiles": "CCN1CCN(c2cc3c(cc2F)c(=O)c(C(=O)O)cn3C2CC2)CC1", "values": [
      {"measurement": "neuronal differentiation score", "setting": "ReNCell VM [1]; library: Spectrum", "value": "inactive: 0"},
      {"measurement": "dopaminergic neuron differentiation score", "setting": "ReNCell VM [2]; library: Spectrum", "value": "inactive: 0"}
    ]},
    {"smiles": "CC(=O)Nc1c(I)c(NC(C)=O)c(I)c(C(=O)O)c1I", "values": [
      {"measurement": "neuronal differentiation score", "setting": "ReNCell VM [1]; library: Spectrum", "value": "inactive: 0"},
      {"measurement": "dopaminergic neuron differentiation score", "setting": "ReNCell VM [2]; library: Spectrum", "value": "inactive: 0"}
    ]},
    {"smiles": "CN1[C@@H](CC(=O)c2ccccc2)CCC[C@H]1C[C@H](O)c1ccccc1", "note": "[Lobeline hydrochloride]", "values": [
      {"measurement": "neuronal differentiation score", "setting": "ReNCell VM [1]; library: Tocriscreen", "value": "inactive: 0"},
      {"measurement": "dopaminergic neuron differentiation score", "setting": "ReNCell VM [2]; library: Tocriscreen", "value": "inactive: 0"}
    ]},
    {"smiles": "CC[N+](C)(CC)CC(=O)Nc1c(C)cccc1C", "note": "[N-Methyllidocaine iodide]", "values": [
      {"measurement": "neuronal differentiation score", "setting": "ReNCell VM [1]; library: Tocriscreen", "value": "inactive: 0"},
      {"measurement": "dopaminergic neuron differentiation score", "setting": "ReNCell VM [2]; library: Tocriscreen", "value": "inactive: 0"}
    ]},
    {"smiles": "FC(F)(F)C(Cl)Br", "note": "(stereo not given)", "values": [
      {"measurement": "neuronal differentiation score", "setting": "ReNCell VM [1]; library: Spectrum", "value": "inactive: 0"},
      {"measurement": "dopaminergic neuron differentiation score", "setting": "ReNCell VM [2]; library: Spectrum", "value": "inactive: 0"}
    ]},
    {"smiles": "CC1(C)S[C@@H]2[C@H](NC(=O)[C@H](C(=O)O)c3ccsc3)C(=O)N2[C@H]1C(=O)O", "note": "[Ticarcillin sodium]", "values": [
      {"measurement": "neuronal differentiation score", "setting": "ReNCell VM [1]; library: Prestwick", "value": "inactive: 0"},
      {"measurement": "dopaminergic neuron differentiation score", "setting": "ReNCell VM [2]; library: Prestwick", "value": "inactive: 0"}
    ]},
    {"smiles": "CN/C(=N\\c1ccc(C2=NNC(=O)CC2C)cc1)NC#N", "note": "(stereo not given)", "values": [
      {"measurement": "neuronal differentiation score", "setting": "ReNCell VM [1]; library: LOPAC", "value": "inactive: 0"},
      {"measurement": "dopaminergic neuron differentiation score", "setting": "ReNCell VM [2]; library: LOPAC", "value": "inactive: 0"}
    ]},
    {"smiles": "O=C(NC(Cc1cc(=O)[nH]c2ccccc12)C(=O)O)c1ccc(Cl)cc1", "note": "(stereo not given)", "values": [
      {"measurement": "neuronal differentiation score", "setting": "ReNCell VM [1]; library: Spectrum", "value": "inactive: 0"},
      {"measurement": "dopaminergic neuron differentiation score", "setting": "ReNCell VM [2]; library: Spectrum", "value": "inactive: 0"}
    ]},
    {"smiles": "N[C@@H](CCC(=O)N[C@@H](CSN=O)C(=O)NCC(=O)O)C(=O)O", "note": "[S-Nitrosoglutathione]", "values": [
      {"measurement": "neuronal differentiation score", "setting": "ReNCell VM [1]; library: LOPAC", "value": "inactive: 0"},
      {"measurement": "dopaminergic neuron differentiation score", "setting": "ReNCell VM [2]; library: LOPAC", "value": "inactive: 0"}
    ]},
    {"smiles": "CC(=O)O[C@H]1C[C@@H](OC(C)=O)C(C)(C)[C@@H]2C[C@@H](OC(C)=O)[C@]3(C)[C@H](CC[C@@]4(C)[C@H](c5ccoc5)OC(=O)[C@H]5O[C@@]534)[C@@]12C", "values": [
      {"measurement": "neuronal differentiation score", "setting": "ReNCell VM [1]; library: Spectrum", "value": "inactive: 0"},
      {"measurement": "dopaminergic neuron differentiation score", "setting": "ReNCell VM [2]; library: Spectrum", "value": "inactive: 1"}
    ]},
    {"smiles": "CN1CCC(=C2c3ccccc3Sc3ccccc32)CC1", "values": [
      {"measurement": "neuronal differentiation score", "setting": "ReNCell VM [1]; library: Spectrum", "value": "inactive: 0"},
      {"measurement": "dopaminergic neuron differentiation score", "setting": "ReNCell VM [2]; library: Spectrum", "value": "inactive: 0"}
    ]},
    {"smiles": "CC1=C2C(O)C(=O)OC3CC4C(C)(C)C(=O)C=C[C@]4(C)C(CC1)[C@]23C", "note": "(stereo not given in full)", "values": [
      {"measurement": "neuronal differentiation score", "setting": "ReNCell VM [1]; library: Spectrum", "value": "inactive: 0"},
      {"measurement": "dopaminergic neuron differentiation score", "setting": "ReNCell VM [2]; library: Spectrum", "value": "inactive: 0"}
    ]},
    {"smiles": "Nc1ncnc2c1nc(Br)n2C1OC2COP(=O)(O)O[C@@H]2C1O", "note": "(stereo not given in full) [8-Bromo-cAMP sodium]", "values": [
      {"measurement": "neuronal differentiation score", "setting": "ReNCell VM [1]; library: LOPAC", "value": "inactive: 0"},
      {"measurement": "dopaminergic neuron differentiation score", "setting": "ReNCell VM [2]; library: LOPAC", "value": "inactive: 0"}
    ]},
    {"smiles": "Cn1c(=O)c2c(ncn2CC(O)CO)n(C)c1=O", "note": "(stereo not given)", "values": [
      {"measurement": "neuronal differentiation score", "setting": "ReNCell VM [1]; library: Spectrum", "value": "inactive: 0"},
      {"measurement": "dopaminergic neuron differentiation score", "setting": "ReNCell VM [2]; library: Spectrum", "value": "inactive: 0"}
    ]},
    {"smiles": "OC1(c2ccc(Cl)c(C(F)(F)F)c2)CCN(CCCC(c2ccc(F)cc2)c2ccc(F)cc2)CC1", "values": [
      {"measurement": "neuronal differentiation score", "setting": "ReNCell VM [1]; library: Spectrum", "value": "active: 3"},
      {"measurement": "dopaminergic neuron differentiation score", "setting": "ReNCell VM [2]; library: Spectrum", "value": "inactive: 0"}
    ]},
    {"smiles": "CO[C@H]1/C=C/O[C@@]2(C)Oc3c(C)c(O)c4c(O)c(c(/C=N/N5CCN(C)CC5)c(O)c4c3C2=O)NC(=O)/C(C)=C\\C=C\\[C@H](C)[C@H](O)[C@@H](C)[C@@H](O)[C@@H](C)[C@H](OC(C)=O)[C@@H]1C", "note": "[Rifampicin]", "values": [
      {"measurement": "neuronal differentiation score", "setting": "ReNCell VM [1]; library: Prestwick", "value": "inactive: 0"},
      {"measurement": "dopaminergic neuron differentiation score", "setting": "ReNCell VM [2]; library: Prestwick", "value": "inactive: 1"}
    ]}
  ]
}
